{"source": "patent US20090221543A1", "about": "“NEW CORTICOSTEROIDS” (NICOX S A., priority 2002, published 2009)", "test_system": "bronchoconstriction caused by histamine", "assay": "Bronchoconstriction caused by histamine in guinea pigs (sGaw, whole body plethysmography)", "type": "in vivo", "conditions": "aerosol, equimolar doses", "protocol": "Male guinea pigs weighing between 250 and 300 g for several days before the beginning of the experiment have been accustomed to the restrained and whole-body plethysmograph. Histamine (3 mM dissolved in saline solution 0.9%) has been administered by intranasal route for 20 seconds 24 hours before and 15 minutes after the administration of the tested compounds. NO-Budesonide (635: g/ml) and Budesonide (448: g/ml) dissolved in a mixture (v/v) DMSO 20%, ethanol 10%, saline physiological solution 70%, or the carrier, have been administered to the animals as aerosols, in a sealed room, using a wright nebulizer operating by compressed air at a pressure of 21.38×10^3 Pa (20 p.s.i.) and a flow of 0.5 ml/min. The administration lasted 15 minutes.\nTo monitor the functionality of the animal airways the “whole body” plethysmography has been used. The animals were watchful and functionality has been determined as specific conductance of the airways (sGaw), expressed in % change of the basal value in the instant immediately after the exposure. To this purpose the animals were provided with a suitable mask and then transferred in a sealed room. The respiratory flow has been determined by a pneumotachograph and a pressure transducer.", "note": "At least one structure is not confirmed: it was looked up by name or label, or the drawing left a doubt."}
{"compound": "CCCC1O[C@@H]2C[C@H]3[C@@H]4CCC5=CC(=O)C=C[C@]5(C)[C@H]4[C@@H](O)C[C@]3(C)[C@]2(C(=O)CO)O1", "note": "(stereo partly shown) [Budesonide, reference compound]", "values": [{"measurement": "inhibition of the bronchoconstriction caused by histamine", "value": "worsens the bronchoconstriction caused by histamine"}]}
